Data from US4859707A, “Sulfur-substituted phenylacetamides” (Key Pharmaceuticals, Inc., priority 1983, dated 1989).

Experiment: Estimation of LD50 in mice
Settings: mouse, in vivo, ip, intraperitoneal in dimethylsulfoxide, observed for 48 hr
Experimental: The LD50 in white CD-1 male mice (average mass, 24.0±0.1 g) was estimated. A solution of the compound to be tested in dimethysulfoxide was injected intraperitoneally and the animals observed for 48 hr.

CCN(CC)CC(=O)Nc1c(C)cccc1C [lidocaine, reference compound]
LD50 at 48 h: 130 mg/kg
